Results published in patent publication US8226966B2, “Fungicide N-6-membered fused (hetero) aryl-methylene-N-cycloalkyl carboxamide derivatives” (Bayer Cropscience AG, priority 2007, dated 2012).
Some entries share one result that the patent states for a list of compounds. For some of these results: At least one structure is not confirmed: it was looked up by name or label, or the drawing left a doubt.

What was measured:
Peronospora parasitica = test: In vivo test on Peronospora parasitica (crucifer downy mildew); settings: cabbage plants, spray 24 h before contamination, dose of 500 ppm, grading 5 days after contamination vs control plants
[1] = system: Mycosphaerella graminicola; test: In vivo preventive test on Mycosphaerella graminicola (wheat leaf spot); settings: wheat plants, preventive spray, dose of 500 ppm, grading 21 to 28 days after contamination vs control plants
Pyrenophora teres = test: In vivo preventive test on Pyrenophora teres (barley net blotch); settings: barley plants, preventive spray, dose of 500 ppm, grading 12 days after contamination vs control plants
Sphaerotheca fuliginea = test: In vivo preventive test on Sphaerotheca fuliginea (cucurbit powdery mildew); settings: gherkin plants, preventive spray, dose of 500 ppm, grading 11-12 days after contamination vs control plants
[2] = system: Puccinia recondita f. Sp. tritici; test: In vivo test on Puccinia recondita f. sp. tritici (wheat brown rust); settings: wheat plants, spray 24 h before contamination, dose of 500 ppm, grading 10 days after contamination vs control plants

Row | Compound | protection (% of disease control) (Peronospora parasitica) | protection (% of efficacy) [1] | protection (Pyrenophora teres) | protection (% of efficacy) (Sphaerotheca fuliginea) | protection [2]
1 | Cc1occc1C(=O)N(Cc1ccc(Br)c2cccnc12)C1CC1 [Example 169] | at least 70% |  |  |  | 
2 | Cc1occc1C(=O)N(C1CC1)C(C)c1cccc2ccccc12 (stereo not shown) [Example 84] | at least 70% | at least 70% |  |  | 
3 | CCc1nn(C)c(F)c1C(=O)N(C1CC1)C(CC)c1cccc2ccccc12 (stereo not shown) [Example 85] |  | at least 70% | at least 70% | at least 70% | at least 70%
4 | Cn1cc(C(=O)N(Cc2cccc3c(C(F)(F)F)cccc23)C2CC2)c(C(F)F)n1 [Example 178] |  | at least 70% | at least 70% | at least 70% | at least 70%
5 | Cc1ccc2ccccc2c1CN(C(=O)c1ccoc1C)C1CC1 [Example 48] | at least 70% | at least 70% |  |  | 
6 | COc1cc2ccccc2c(CN(C(=O)c2cc(C)oc2C)C2CC2)c1OC [Example 134] | at least 70% | at least 70% |  |  | at least 70%
7 | Cc1nn(C)c(F)c1C(=O)N(Cc1ccc(Br)c2ccccc12)C1CC1 [Example 54] |  | at least 70% | at least 70% |  | at least 70%
8 | Cc1nn(C)c(F)c1C(=S)N(Cc1ccc2ccccc2c1Br)C1CC1 [Example 25] |  |  | at least 70% | at least 70% | at least 70%
9 | Cc1cc(C(=O)N(Cc2cccc3cnccc23)C2CC2)c(C)o1 [Example 183] | at least 70% | at least 70% |  |  | 
10 | Cc1occc1C(=O)N(Cc1ccnc2cc(Cl)cc(Cl)c12)C1CC1 [Example 99] | at least 70% |  |  |  | 
11 | COc1cc2ccccc2c(CN(C(=O)c2sccc2C)C2CC2)c1OC [Example 135] | at least 70% |  |  |  | 
12 | Cc1nn(C)c(F)c1C(=O)N(Cc1cccc2c(C(F)(F)F)cccc12)C1CC1 [Example 177] |  | at least 70% | at least 70% | at least 70% | at least 70%
13 | COC(=O)C(c1cccc2ccccc12)N(C(=O)c1c(C)nn(C)c1F)C1CC1 (stereo not shown) [Example 63] |  | at least 70% |  | at least 70% | at least 70%
14 | COc1nn(C)cc1C(=O)N(C1CC1)C(C)c1cccc2ccccc12 (stereo not shown) [Example 75] | at least 70% | at least 70% | at least 70% | at least 70% | 
15 | Cn1cc(C(=O)N(Cc2ccnc3cc(Cl)cc(Cl)c23)C2CC2)c(C(F)(F)F)c1 [Example 100] |  | at least 70% | at least 70% | at least 70% | at least 70%
16 | Cc1cc(C(=O)N(Cc2ccc(Br)c3cccnc23)C2CC2)c(C)o1 [Example 164] | at least 70% | at least 70% |  |  | 
17 | Cc1nn(C)c(F)c1C(=O)N(Cc1ccc(C)c2ccccc12)C1CC1 [Example 9] |  | at least 70% | at least 70% |  | at least 70%
18 | Cc1nn(C)c(F)c1C(=O)N(Cc1ccc2ccccc2c1)C1CC1 [Example 1] |  | at least 70% | at least 70% |  | at least 70%
19 | Cc1cnc2cccc(CN(C(=O)c3c(C)nn(C)c3F)C3CC3)c2c1 [Example 158] |  | at least 70% |  | at least 70% | at least 70%
20 | Cc1occc1C(=O)N(Cc1cccc2c(C(F)(F)F)cccc12)C1CC1 [Example 179] | at least 70% |  |  |  | 
21 | Cc1cc(C(=O)N(Cc2ccnc3cc(Cl)cc(Cl)c23)C2CC2)c(C)o1 [Example 94] | at least 70% | at least 70% |  |  | at least 70%
22 | CCc1nn(C)c(F)c1C(=O)N(C1CC1)C(C)c1cccc2ccccc12 (single isomer, unassigned) [Example 87] | at least 70% |  |  |  | 
23 | COc1nn(C)cc1C(=O)N(C1CC1)C(C)c1ccc2ccccc2c1 (stereo not shown) [Example 8] | at least 70% | at least 70% | at least 70% | at least 70% | 

Row | Compound | protection (% of disease control) (Peronospora parasitica) | protection (% of efficacy) [1] | protection (Pyrenophora teres) | protection (% of efficacy) (Sphaerotheca fuliginea) | protection [2]
24 | COc1ccc2ccc(OC)c(CN(C(=O)c3cc(C)oc3C)C3CC3)c2c1 [Example 219] | at least 70% |  |  |  | 
25 | CCc1nn(C)c(F)c1C(=O)N(C1CC1)C(C)c1ccc(Br)c2ccccc12 (stereo not shown) [Example 58] |  | at least 70% | at least 70% | at least 70% | at least 70%
26 | CCc1nn(C)c(F)c1C(=O)N(C1CC1)C(C)c1ccc(OC)c2ccccc12 (stereo not shown) [Example 120] |  | at least 70% | at least 70% | at least 70% | at least 70%
27 | CCc1nn(C)c(F)c1C(=O)N(C1CC1)C(C)c1ccc(F)c2ccccc12 (racemic) [Example 242] |  | at least 70% | at least 70% | at least 70% | at least 70%
28 | Cc1cc(C(=O)N(Cc2ncc(C(F)(F)F)cc2Cl)C2CC2)c(C)o1 [WO-2006/120224 example 5, N-cyclopropyl-N-[(3-Chloro-5-trifluoromethyl-pyridin-2-yl)-methylene]-2,5-dimethyl-furane-3-carboxamide, reference compound] | less than 30% |  |  |  | 
29 | Cc1cc(C(=O)N(Cc2cccc3c(C(F)(F)F)cccc23)C2CC2)c(C)o1 [Example 174] | at least 70% | at least 70% |  |  | 
30 | Cn1cc(C(=O)N(Cc2cccc3ncccc23)C2CC2)c(C(F)(F)F)c1 [Example 198] | at least 70% |  |  | at least 70% | 
31 | CN(C)c1ccc(CN(C(=O)c2cn(C)cc2C(F)(F)F)C2CC2)c2ccccc12 [Example 149] | at least 70% | at least 70% | at least 70% | at least 70% | at least 70%
32 | COC(=O)C(c1cccc2ccccc12)N(C(=O)c1cn(C)nc1OC)C1CC1 (stereo not shown) [Example 73] | at least 70% |  |  |  | 
33 | COc1cc2ccccc2c(CN(C(=O)c2cn(C)nc2C(F)F)C2CC2)c1OC [Example 138] |  | at least 70% |  | at least 70% | at least 70%
34 | COc1cc2ccccc2c(CN(C(=O)c2c(C(F)(F)F)nn(C)c2F)C2CC2)c1OC [Example 136] | at least 70% | at least 70% |  | at least 70% | at least 70%
35 | COc1cc2ccccc2c(CN(C(=O)c2c(C)nn(C)c2F)C2CC2)c1OC [Example 137] |  | at least 70% |  | at least 70% | at least 70%
36 | Cn1cc(C(=O)N(Cc2ccnc3ccccc23)C2CC2)c(C(F)(F)F)c1 [Example 109] | at least 70% | at least 70% | at least 70% | at least 70% | at least 70%
37 | COc1nn(C)cc1C(=O)N(Cc1ccc2ccccc2c1Br)C1CC1 [Example 27] | at least 70% | at least 70% | at least 70% |  | 
38 | Cn1nc(C(F)(F)F)c(C(=O)N(Cc2ncc(C(F)(F)F)cc2Cl)C2CC2)c1F [WO-2006/120224 example 50, N-cyclopropyl-N-[(3-Chloro-5-trifluoromethyl-pyridin-2-yl)-methylene]-5-fluoro-3-(trifluoromethyl)-1-methyl-1H-pyrazole-4-carboxamide, reference compound] | less than 30% |  |  |  | 
39 | Cc1cnc2cccc(CN(C(=O)c3cc(C)oc3C)C3CC3)c2c1 [Example 155] | at least 70% | at least 70% |  |  | 
40 | Cc1occc1C(=O)N(C1CC1)C(C)c1ccc(C)c2ccccc12 (stereo not shown) [Example 19] | at least 70% |  |  |  | 
41 | Cc1nn(C)c(F)c1C(=O)N(Cc1ncc(C(F)(F)F)cc1Cl)C1CC1 [WO-2006/120224 example 45, N-cyclopropyl-N-[(3-Chloro-5-trifluoromethyl-pyridin-2-yl)-methylene]-5-fluoro-1,3-dimethyl-1H-pyrazole-4-carboxamide, reference compound] | less than 30% |  |  |  | 
42 | Cc1nn(C)c(F)c1C(=O)N(Cc1ccc2ccccc2c1Br)C1CC1 [Example 24] |  | at least 70% | at least 70% |  | at least 70%
43 | COc1ccc(C(C)N(C(=O)c2c(C)nn(C)c2F)C2CC2)c2ccccc12 (stereo not shown) [Example 119] |  | at least 70% | at least 70% |  | at least 70%
44 | COc1ccc2ccccc2c1CN(C(=O)c1cn(C)nc1C(F)F)C1CC1 [Example 129] | at least 70% | at least 70% |  | at least 70% | 
45 | Cc1occc1C(=O)N(Cc1ccnc2ccccc12)C1CC1 [Example 108] | at least 70% |  |  |  | 
